These are yes or no findings as the source states them, for the method shown. Some results given as binding are weak or reduced against the parent protein; the word gives no strength.

Here are results for 5 molecules from patent CN115368458A.

Assay [1] has as its target T1, hCD73-biotin (ACROBiosystems, CD3-H82E3) (human) (UniProt P21589).
T1 sequence (biotin (site not stated), looked up): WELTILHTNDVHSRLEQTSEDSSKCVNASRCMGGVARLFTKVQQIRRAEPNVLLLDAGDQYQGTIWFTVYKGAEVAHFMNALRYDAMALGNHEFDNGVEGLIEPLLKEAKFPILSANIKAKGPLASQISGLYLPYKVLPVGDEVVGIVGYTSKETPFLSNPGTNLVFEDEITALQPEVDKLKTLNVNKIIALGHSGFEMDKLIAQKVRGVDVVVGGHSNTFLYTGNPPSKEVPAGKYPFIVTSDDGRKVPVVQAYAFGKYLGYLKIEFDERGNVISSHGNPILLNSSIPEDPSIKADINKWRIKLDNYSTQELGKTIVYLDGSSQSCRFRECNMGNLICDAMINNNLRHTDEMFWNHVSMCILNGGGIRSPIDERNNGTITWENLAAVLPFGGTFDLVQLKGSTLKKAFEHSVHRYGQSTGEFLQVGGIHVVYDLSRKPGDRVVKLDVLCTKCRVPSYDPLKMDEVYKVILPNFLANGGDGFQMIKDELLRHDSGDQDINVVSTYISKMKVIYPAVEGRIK
As to the kind of experiment: phage ELISA on antigen hCD73. On the technique in general: ELISA stands for enzyme-linked immunosorbent assay.

The target of assay [2] is 食蟹猴cCD73-His (近岸生物, Catalog CD3-C52H9) (cynomolgus monkey). As to the kind of experiment: ELISA, CD73-His coated at 2 μg/ml.

B1: scFv(P59-L1) (scFv)
scFv: EVQLVESGGGLVQPGGSLRLSCAASGFSFDTYAMSWVRQAPGKGLEWVSAISGDTGVTGYADSVKGRFTISRDNSKNTLYLQMNSLRAEDTAVYYCARDRYAYLVDGWFDYWGQGTLVTVSSGGGGSGGGGSGGGGSDIQMTQSPSSLSASVGDRVTITCRASQGISSYLAWYQQKPGKAPKLLIYAASSLQSGVPSRFSGSGSGTDFTLTISSLQPEDFATYYCQQASYTGDPVTFGQGTKVEIK
For the molecule B1, the binding entry in assay [1] was “binds”.

B2: scFv(P59-L17) (scFv)
scFv: EVQLVESGGGLVQPGGSLRLSCAASGFSFDTYAMSWVRQAPGKGLEWVSAISGDTGVTGYADSVKGRFTISRDNSKNTLYLQMNSLRAEDTAVYYCARDRYAYLVDGWFDYWGQGTLVTVSSGGGGSGGGGSGGGGSDIQMTQSPSSLSASVGDRVTITCRASQGISSYLAWYQQKPGKAPKLLIYAASSLQSGVPSRFSGSGSGTDFTLTISSLQPEDFATYYCQTWSGWPDYLTFGQGTKVEIK
With B2, the binding result in assay [1] is “binds”.

B3: scFv(P59-L6) (scFv)
scFv: EVQLVESGGGLVQPGGSLRLSCAASGFSFDTYAMSWVRQAPGKGLEWVSAISGDTGVTGYADSVKGRFTISRDNSKNTLYLQMNSLRAEDTAVYYCARDRYAYLVDGWFDYWGQGTLVTVSSGGGGSGGGGSGGGGSDIQMTQSPSSLSASVGDRVTITCRASQGISSYLAWYQQKPGKAPKLLIYAASSLQSGVPSRFSGSGSGTDFTLTISSLQPEDFATYYCAQYDFSFYGVTFGQGTKVEIK
B3: the binding result in assay [1] is listed as “binds”.

B4: scFv(P59-L12) (scFv)
scFv: EVQLVESGGGLVQPGGSLRLSCAASGFSFDTYAMSWVRQAPGKGLEWVSAISGDTGVTGYADSVKGRFTISRDNSKNTLYLQMNSLRAEDTAVYYCARDRYAYLVDGWFDYWGQGTLVTVSSGGGGSGGGGSGGGGSDIQMTQSPSSLSASVGDRVTITCRASQGISSYLAWYQQKPGKAPKLLIYAASSLQSGVPSRFSGSGSGTDFTLTISSLQPEDFATYYCQTSDFFPNPVTFGQGTKVEIK
Take B4: the binding result in assay [1] is recorded as “binds”.

B5: 抗体P59-L17 (antibody, IgG1, V domains shown)
VH: EVQLVESGGGLVQPGGSLRLSCAASGFSFDTYAMSWVRQAPGKGLEWVSAISGDTGVTGYADSVKGRFTISRDNSKNTLYLQMNSLRAEDTAVYYCARDRYAYLVDGWFDYWGQGTLVTVSS
VL: DIQMTQSPSSLSASVGDRVTITCRASQGISSYLAWYQQKPGKAPKLLIYAASSLQSGVPSRFSGSGSGTDFTLTISSLQPEDFATYYCQTWSGWPDYLTFGQGTKVEIK
Take B5: the binding result in assay [2] was “binds”.
